The values that follow come from the supplement of paper PMC10849652.

Chains of the proteins cited; added tags and fusions are not shown. Lines headed by an entry give the natural chain unless they say otherwise; changes in a name come on top.
UniProt O15164: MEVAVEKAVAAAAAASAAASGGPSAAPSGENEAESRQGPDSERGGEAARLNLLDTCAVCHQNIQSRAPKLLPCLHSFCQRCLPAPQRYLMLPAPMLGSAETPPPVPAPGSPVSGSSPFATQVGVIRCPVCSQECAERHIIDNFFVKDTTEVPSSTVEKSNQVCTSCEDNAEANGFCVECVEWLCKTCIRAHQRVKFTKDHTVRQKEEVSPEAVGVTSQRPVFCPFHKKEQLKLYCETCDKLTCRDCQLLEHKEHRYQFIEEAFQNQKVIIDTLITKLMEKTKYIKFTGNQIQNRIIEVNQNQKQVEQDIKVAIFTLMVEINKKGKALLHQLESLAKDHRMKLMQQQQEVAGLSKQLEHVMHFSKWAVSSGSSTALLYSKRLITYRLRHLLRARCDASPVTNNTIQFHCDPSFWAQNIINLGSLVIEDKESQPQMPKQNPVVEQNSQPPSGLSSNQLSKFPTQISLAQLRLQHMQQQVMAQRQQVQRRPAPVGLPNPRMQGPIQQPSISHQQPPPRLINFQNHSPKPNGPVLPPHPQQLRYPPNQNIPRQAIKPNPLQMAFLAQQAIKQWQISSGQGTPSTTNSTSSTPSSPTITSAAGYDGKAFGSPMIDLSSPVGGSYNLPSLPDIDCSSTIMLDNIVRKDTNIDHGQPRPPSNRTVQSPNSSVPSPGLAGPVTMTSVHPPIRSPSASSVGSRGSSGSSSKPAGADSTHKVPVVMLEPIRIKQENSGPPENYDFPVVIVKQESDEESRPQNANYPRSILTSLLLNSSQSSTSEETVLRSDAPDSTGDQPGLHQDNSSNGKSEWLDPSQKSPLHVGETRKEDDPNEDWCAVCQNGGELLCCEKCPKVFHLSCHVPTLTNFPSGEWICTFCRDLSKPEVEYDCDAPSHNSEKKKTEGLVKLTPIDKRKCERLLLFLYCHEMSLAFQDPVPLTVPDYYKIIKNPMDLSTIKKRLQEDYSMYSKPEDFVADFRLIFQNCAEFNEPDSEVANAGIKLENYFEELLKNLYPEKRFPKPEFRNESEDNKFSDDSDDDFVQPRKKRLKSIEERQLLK
UniProt Q9C035: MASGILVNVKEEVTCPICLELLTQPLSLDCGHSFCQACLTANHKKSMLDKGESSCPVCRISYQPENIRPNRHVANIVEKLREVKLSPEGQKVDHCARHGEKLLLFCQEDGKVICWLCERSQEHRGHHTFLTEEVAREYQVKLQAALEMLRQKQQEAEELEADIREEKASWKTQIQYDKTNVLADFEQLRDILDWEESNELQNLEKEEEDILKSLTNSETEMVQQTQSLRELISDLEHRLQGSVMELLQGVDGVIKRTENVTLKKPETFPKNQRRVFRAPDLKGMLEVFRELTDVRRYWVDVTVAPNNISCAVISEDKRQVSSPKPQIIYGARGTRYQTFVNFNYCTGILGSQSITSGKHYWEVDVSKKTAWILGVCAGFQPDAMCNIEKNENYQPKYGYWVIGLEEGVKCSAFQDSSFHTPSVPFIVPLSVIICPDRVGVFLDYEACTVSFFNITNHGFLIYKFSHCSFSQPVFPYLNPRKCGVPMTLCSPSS
UniProt Q9UKE5: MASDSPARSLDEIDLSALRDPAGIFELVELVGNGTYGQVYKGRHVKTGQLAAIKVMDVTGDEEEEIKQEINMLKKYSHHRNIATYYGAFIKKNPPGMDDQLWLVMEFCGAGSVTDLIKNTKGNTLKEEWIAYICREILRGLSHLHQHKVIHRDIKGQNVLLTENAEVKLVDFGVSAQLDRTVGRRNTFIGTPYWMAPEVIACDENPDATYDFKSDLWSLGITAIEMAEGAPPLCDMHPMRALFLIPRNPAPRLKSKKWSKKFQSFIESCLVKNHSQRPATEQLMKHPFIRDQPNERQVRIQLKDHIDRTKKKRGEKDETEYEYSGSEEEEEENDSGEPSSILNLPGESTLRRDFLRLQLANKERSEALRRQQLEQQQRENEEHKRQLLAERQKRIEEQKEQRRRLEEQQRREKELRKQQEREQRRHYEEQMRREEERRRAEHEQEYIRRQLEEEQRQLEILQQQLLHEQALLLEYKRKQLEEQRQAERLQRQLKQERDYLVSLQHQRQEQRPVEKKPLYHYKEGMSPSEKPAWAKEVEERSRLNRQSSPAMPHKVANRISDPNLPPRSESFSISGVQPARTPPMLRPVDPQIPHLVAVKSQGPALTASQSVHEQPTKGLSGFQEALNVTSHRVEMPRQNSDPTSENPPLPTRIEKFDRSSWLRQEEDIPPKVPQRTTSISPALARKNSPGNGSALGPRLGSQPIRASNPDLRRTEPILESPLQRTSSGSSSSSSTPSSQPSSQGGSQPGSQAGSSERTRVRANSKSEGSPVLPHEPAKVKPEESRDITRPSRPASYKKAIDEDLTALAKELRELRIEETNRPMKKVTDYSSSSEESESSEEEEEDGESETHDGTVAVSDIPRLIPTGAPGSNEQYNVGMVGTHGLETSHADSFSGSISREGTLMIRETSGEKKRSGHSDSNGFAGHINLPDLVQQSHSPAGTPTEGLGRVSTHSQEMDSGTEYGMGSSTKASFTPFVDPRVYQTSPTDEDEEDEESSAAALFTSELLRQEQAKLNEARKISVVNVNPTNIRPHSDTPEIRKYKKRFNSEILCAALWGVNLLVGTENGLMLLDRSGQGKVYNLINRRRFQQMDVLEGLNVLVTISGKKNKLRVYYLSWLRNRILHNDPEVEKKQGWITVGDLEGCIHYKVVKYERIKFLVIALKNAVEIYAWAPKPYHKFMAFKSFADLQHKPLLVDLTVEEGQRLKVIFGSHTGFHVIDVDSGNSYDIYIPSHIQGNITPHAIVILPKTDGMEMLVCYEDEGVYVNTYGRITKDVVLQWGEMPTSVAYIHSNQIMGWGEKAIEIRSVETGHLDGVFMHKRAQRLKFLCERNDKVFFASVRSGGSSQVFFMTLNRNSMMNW
UniProt O60784, whole entry, looked up: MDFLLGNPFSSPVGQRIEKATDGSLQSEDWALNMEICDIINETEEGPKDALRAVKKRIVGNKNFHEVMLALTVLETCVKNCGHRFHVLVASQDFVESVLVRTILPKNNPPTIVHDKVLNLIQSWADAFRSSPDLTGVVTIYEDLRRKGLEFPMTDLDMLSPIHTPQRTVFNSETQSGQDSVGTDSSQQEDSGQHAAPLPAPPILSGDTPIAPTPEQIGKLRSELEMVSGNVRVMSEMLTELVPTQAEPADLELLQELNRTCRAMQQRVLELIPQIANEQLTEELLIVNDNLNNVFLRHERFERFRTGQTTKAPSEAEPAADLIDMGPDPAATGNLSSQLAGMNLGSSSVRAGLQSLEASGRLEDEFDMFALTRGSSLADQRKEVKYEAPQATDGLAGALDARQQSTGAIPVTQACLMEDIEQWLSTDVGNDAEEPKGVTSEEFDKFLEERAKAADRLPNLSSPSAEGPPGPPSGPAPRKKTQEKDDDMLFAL
UniProt Q9UL33, whole entry, looked up: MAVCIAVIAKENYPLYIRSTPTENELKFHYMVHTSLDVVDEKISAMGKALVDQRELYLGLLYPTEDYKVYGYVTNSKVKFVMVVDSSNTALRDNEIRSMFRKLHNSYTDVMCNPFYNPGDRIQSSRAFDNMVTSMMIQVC
UniProt Q7Z392: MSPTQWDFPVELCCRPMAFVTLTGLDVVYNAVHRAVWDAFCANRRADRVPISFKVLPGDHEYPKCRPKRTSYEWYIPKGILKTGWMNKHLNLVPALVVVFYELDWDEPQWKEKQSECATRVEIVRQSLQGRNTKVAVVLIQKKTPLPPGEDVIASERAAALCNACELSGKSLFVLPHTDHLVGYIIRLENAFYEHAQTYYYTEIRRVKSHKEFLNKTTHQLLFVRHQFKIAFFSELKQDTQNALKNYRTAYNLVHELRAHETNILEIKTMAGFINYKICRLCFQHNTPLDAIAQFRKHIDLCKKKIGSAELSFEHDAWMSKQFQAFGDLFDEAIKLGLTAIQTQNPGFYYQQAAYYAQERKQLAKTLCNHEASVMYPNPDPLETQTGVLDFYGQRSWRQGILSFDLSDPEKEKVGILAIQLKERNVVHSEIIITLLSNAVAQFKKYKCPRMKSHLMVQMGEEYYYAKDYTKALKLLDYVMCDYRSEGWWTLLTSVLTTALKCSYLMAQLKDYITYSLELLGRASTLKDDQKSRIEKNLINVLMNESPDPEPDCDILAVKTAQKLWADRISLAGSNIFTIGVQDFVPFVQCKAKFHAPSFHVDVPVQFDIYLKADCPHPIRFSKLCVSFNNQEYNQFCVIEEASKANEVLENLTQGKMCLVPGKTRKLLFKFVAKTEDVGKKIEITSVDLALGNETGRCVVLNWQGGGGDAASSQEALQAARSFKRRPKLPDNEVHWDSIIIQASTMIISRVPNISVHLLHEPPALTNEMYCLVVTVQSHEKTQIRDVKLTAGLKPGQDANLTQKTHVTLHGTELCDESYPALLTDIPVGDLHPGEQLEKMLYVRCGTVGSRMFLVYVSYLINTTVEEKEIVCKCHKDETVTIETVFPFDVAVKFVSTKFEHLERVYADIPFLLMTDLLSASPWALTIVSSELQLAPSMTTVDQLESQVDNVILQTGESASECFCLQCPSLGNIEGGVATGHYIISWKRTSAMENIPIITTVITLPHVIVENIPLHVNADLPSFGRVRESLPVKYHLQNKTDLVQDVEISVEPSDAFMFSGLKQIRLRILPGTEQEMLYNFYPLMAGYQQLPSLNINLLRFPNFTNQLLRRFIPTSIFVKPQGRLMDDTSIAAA

Some of the results follow.

What all share (test): log2 fold change, soluble protein after heating vs DMSO (PISA); higher = thermal stabilisation; K562 cells, 10 uM, 30 min; active = over 0.2 and 3.5 SD of the protein, either way, in both replicates (recomputed)
Compound in one experiment: CN1CCN(CCOc2cc(OC3CCOCC3)c3c(Nc4c(Cl)ccc5c4OCO5)ncnc3c2)CC1 [saracatinib]
An outline of the steps: (§1)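 K562 cells at 2×10^6 cells/mL were given 10 μM compound for 30 min. Aliquots then went through 3 min of heating across 48°C-58°C, were pooled, and were extracted in PBS with 0.5% NP-40 at 4°C, and the supernatant after 21,000xg for 90 min was quantified by TMTpro 16plex LC-MS/MS with channel sums equalised. Thermal stability relative to control samples, from duplicates, is given as log2 fold change.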

Compound in another experiment: CN1CCN(c2nc(C3=C(c4c[nH]c5ccccc45)C(=O)NC3=O)c3ccccc3n2)CC1 [sotrastaurin]
An outline of the steps:
as §1

Compound in another experiment: CN1CC[C@H](c2c(O)cc(O)c3c(=O)cc(-c4ccccc4Cl)oc23)[C@H](O)C1 [alvocidib]
An outline of the steps:
as §1

Compound in a further experiment: CN1CCc2c(c3ccccc3n2Cc2ccc(C(=O)NO)cc2)C1 [Tubastatin A]
The essentials:
as §1

Compound in experiment [1]: CNC(=O)C1=CC=CC=C1NC2=NC(=NC=C2Cl)NC3=C(C=C(C=C3)N4CCOCC4)OC
The essentials:
as §1

Compound in a further experiment: CNC(=O)c1ccc(Nc2ncc(C(F)(F)F)c(NCc3nccnc3N(C)S(C)(=O)=O)n2)cc1 [defactinib]
An outline of the steps: as §1

Compound in experiment [2]: CNc1nc(-c2ccc3c(N)n[nH]c3c2)cc(N2C[C@@H](C(=O)NC3CCCCC3)CC[C@H]2C)n1
An outline of the steps: as §1

Compound in experiment [3]: COC(=O)[C@H](CCSC)NC(=O)C1=C(C=C(C=C1)NC[C@H](CS)N)C2=CC=CC=C2
An outline of the steps: as §1

Compound in experiment [4]: COC1=CC=C(C=C1)CN2C=CC3=C2C=C(C=C3)C(=O)NO
An outline of the steps: as §1

Compound in a further experiment: CON(C)C(=O)N1N=C(c2cc(F)ccc2F)S[C@@]1(CCCN)c1ccccc1 [filanesib]
The essentials:
as §1

Compound in a further experiment: CO[C@H]1C[C@@H]2CC[C@@H](C)[C@@](O)(O2)C(=O)C(=O)N2CCCC[C@H]2C(=O)O[C@H]([C@H](C)C[C@@H]2CC[C@H](n3cnnn3)[C@H](OC)C2)CC(=O)[C@H](C)/C=C(\C)[C@@H](O)[C@@H](OC)C(=O)[C@H](C)C[C@H](C)/C=C/C=C/C=C/1C [zotarolimus]
The essentials:
as §1

Compound in a further experiment: COc1cc(C(=O)O)ccc1NC(=O)[C@@H]1N[C@@H](CC(C)(C)C)[C@](C#N)(c2ccc(Cl)cc2F)[C@H]1c1cccc(Cl)c1F [idasanutlin]
The essentials:
as §1

Compound in the next experiment: COc1cc(Nc2ncc3c(n2)-c2ccc(Cl)cc2C(c2c(F)cccc2OC)=NC3)ccc1C(=O)O [alisertib]
An outline of the steps: as §1

Compound in experiment [5]: COc1cc2nc(-c3cc(F)ccc3O)nc(N[C@@H]3CNC[C@H]3C(C)(C)O)c2cc1OC
An outline of the steps:
as §1

Compound in a further experiment: COc1cc2ncnc(Nc3ccc(F)c(Cl)c3)c2cc1OCCCN1CCOCC1 [gefitinib]
An outline of the steps: as §1

Compound in experiment [6]: COc1cccc2cc(-c3nc([C@H]4CC[C@H](C(=O)O)CC4)n4ncnc(N)c34)[nH]c12
The essentials:
as §1

Compound in the next experiment: CS(=O)(=O)CCNCc1ccc(-c2ccc3ncnc(Nc4ccc(OCc5cccc(F)c5)c(Cl)c4)c3c2)o1 [lapatinib]
The essentials:
as §1

Compound in the next experiment: CS(=O)(=O)N1CCN(Cc2cc3nc(-c4cccc5[nH]ncc45)nc(N4CCOCC4)c3s2)CC1 [pictilisib]
An outline of the steps: as §1

Compound in another experiment: CNCc1ccc(-c2[nH]c3cc(F)cc4c3c2CCNC4=O)cc1 [rucaparib]
The essentials:
as §1

Compound in the next experiment: COC(=O)N[C@@H](C)CNc1nccc(-c2cn(C(C)C)nc2-c2cc(Cl)cc(NS(C)(=O)=O)c2F)n1 [encorafenib]
An outline of the steps: as §1

For the target TPCN1 isoform 3 (UniProt Q9ULQ1), the log2 fold change with saracatinib was inactive: 0.066; with sotrastaurin, inactive: 0.025; with alvocidib it was inactive: 0.075; with Tubastatin A, inactive: 0.012; in experiment [1] it was inactive: 0.03; with defactinib, inactive: -0.105. In addition, the log2 fold change in experiment [2] was inactive: -0.007; in [3], inactive: -0.054; in experiment [4] it was inactive: -0.064; with filanesib it was inactive: 0.101; with zotarolimus, inactive: -0.047; in the experiment with idasanutlin it was inactive: -0.005. The log2 fold change was inactive: -0.113 with alisertib; inactive: 0.086 in experiment [5]; inactive: 0.033 in the experiment with gefitinib; inactive: 0.093 in experiment [6]; inactive: -0.037 with lapatinib; inactive: 0.053 with pictilisib.

Consider TRIM24 (UniProt O15164), for which the log2 fold change was inactive: -0.094 with saracatinib; inactive: -0.152 with sotrastaurin; inactive: 0.09 with Tubastatin A; inactive: -0.12 in experiment [1]; inactive: -0.01 with defactinib; inactive: 0.097 with rucaparib. Moreover, the log2 fold change in [2] was inactive: -0.061; with encorafenib, inactive: 0.127; in experiment [3], inactive: 0.01; in experiment [4] it was inactive: 0.049; with filanesib, inactive: -0.085; with idasanutlin, inactive: -0.207. In addition, the log2 fold change is inactive: 0.011 with alisertib; inactive: 0.078 in [5]; inactive: 0.197 with gefitinib; inactive: -0.021 in experiment [6]; inactive: -0.025 in the experiment with lapatinib; inactive: 0.06 with pictilisib.

TRIM5 (UniProt Q9C035): the log2 fold change in the experiment with saracatinib was inactive: -0.429; with sotrastaurin, inactive: 0.103; with Tubastatin A, inactive: -0.102; in experiment [1], inactive: -0.093; in the experiment with defactinib, inactive: -0.108; in experiment [2], inactive: -0.017. Moreover, the log2 fold change in experiment [3] was inactive: 0.019; with filanesib it was inactive: 0.121; in the experiment with zotarolimus, inactive: -0.066; in the experiment with idasanutlin, inactive: -0.086.

For TNIK isoform 3 (UniProt Q9UKE5), the log2 fold change was inactive: -0.081 with saracatinib; inactive: -0.114 with alvocidib; inactive: 0.023 with Tubastatin A; inactive: 0.006 in experiment [1]; inactive: -0.074 with defactinib; inactive: -0.091 with rucaparib. Moreover, the log2 fold change is inactive: 0.015 in experiment [2]; inactive: 0.005 with encorafenib; inactive: 0.047 in experiment [3]; inactive: -0.021 in experiment [4]; inactive: -0.07 in the experiment with zotarolimus; inactive: -0.067 with idasanutlin. Further, the log2 fold change was inactive: -0.054 in the experiment with alisertib; inactive: 0.058 in experiment [5]; inactive: 0.026 in experiment [6]; inactive: -0.01 in the experiment with lapatinib; inactive: -0.005 in the experiment with pictilisib.

TOE1 (UniProt Q96GM8): the log2 fold change is inactive: 0.025 with saracatinib; inactive: -0.016 with sotrastaurin; inactive: 0.031 with Tubastatin A; inactive: 0.122 in [1]; inactive: 0.193 in the experiment with defactinib; inactive: -0.066 in the experiment with rucaparib. The log2 fold change in experiment [2] is inactive: 0.05; in the experiment with encorafenib, inactive: 0.017; in experiment [3], inactive: 0.05; in [4] it was inactive: -0.06; with filanesib, inactive: 0.246; with zotarolimus it was inactive: 0.023. The log2 fold change is inactive: 0.032 in the experiment with idasanutlin; inactive: -0.075 with alisertib; inactive: 0.039 in experiment [5]; inactive: 0.014 with gefitinib; inactive: -0.162 in [6]; inactive: 0.076 with lapatinib. In addition, the log2 fold change with pictilisib is inactive: -0.054.

On to TOM1 isoform 2 (UniProt O60784), for which the log2 fold change with saracatinib is inactive: 0.033; in the experiment with sotrastaurin, inactive: -0.132; with Tubastatin A, inactive: 0.132; in experiment [1] it was inactive: -0.025; in the experiment with defactinib, inactive: -0.087; in the experiment with rucaparib, inactive: -0.024. Also, the log2 fold change in [2] was inactive: -0.043; in the experiment with encorafenib, inactive: 0.009; in [3], inactive: 0.089; in experiment [4], inactive: -0.118; in the experiment with filanesib, inactive: -0.031; with zotarolimus, inactive: -0.001. For the same target, the log2 fold change in the experiment with idasanutlin is inactive: 0.056; in the experiment with alisertib, inactive: -0.002; in experiment [5], inactive: -0.039; in the experiment with gefitinib it was inactive: -0.031; in experiment [6], inactive: 0; with lapatinib, inactive: 0.014. The log2 fold change with pictilisib was inactive: -0.154.

TRAPPC2L (UniProt Q9UL33): the log2 fold change with saracatinib was inactive: -0.07; with sotrastaurin it was inactive: -0.101; with Tubastatin A, inactive: 0.011; in experiment [1], active: -0.376; in the experiment with defactinib, inactive: -0.032; with rucaparib, inactive: 0.03. Also, the log2 fold change was inactive: -0.026 in [2]; inactive: 0.012 in the experiment with encorafenib; inactive: -0.042 in experiment [3]; inactive: -0.102 in experiment [4]; inactive: -0.05 in the experiment with filanesib; inactive: 0.098 with zotarolimus. Further, the log2 fold change with idasanutlin was inactive: -0.026; with alisertib, inactive: -0.029; in [5] it was inactive: 0.03; with gefitinib, inactive: 0; in experiment [6], inactive: -0.062; with lapatinib, inactive: 0.088. Moreover, in the experiment with pictilisib, the log2 fold change was inactive: -0.018.

Turning to TRAPPC11 (UniProt Q7Z392), the log2 fold change was inactive: -0.043 in the experiment with saracatinib; inactive: -0.041 with sotrastaurin; inactive: 0 with Tubastatin A; inactive: -0.028 in experiment [1]; inactive: -0.075 in the experiment with defactinib; inactive: 0.051 with rucaparib. For the same target, the log2 fold change is inactive: -0.027 in experiment [2]; inactive: 0.035 in the experiment with encorafenib; inactive: -0.031 in experiment [3]; inactive: 0.015 in [4]; inactive: -0.018 with filanesib; inactive: 0.024 with zotarolimus. The log2 fold change in the experiment with idasanutlin was inactive: -0.039; in the experiment with alisertib, inactive: -0.052; in [5] it was inactive: -0.03; with gefitinib, inactive: -0.012; in [6], inactive: -0.019; with lapatinib, inactive: -0.014. The log2 fold change in the experiment with pictilisib was inactive: 0.042.
